Reference: patent US20240150805A1, “Glycosylated Opioids” (River Stone Biotech ApS, priority 2021, published 2024)
Some results were stated once for a whole list of compounds, not compound by compound.

B1: SEQ ID NO: 246: uptake transporter expressed with UGT in yeast (protein)
chain: MAMSIERIEEGALEQNNHHNKLSDGDYEEDSKKSLMAKWGLLLLNCTCSAVGTIGGPLLLRLYFLHGGSRKWLSSWLQTAGFPILLIPLLVLYFRDRSLGVKFFASPKLLLSSAVIGVLLGLDNFMYSYGLSFLPVSTSSLLISTQLIFTALFAFIMVRQKFTPYSINSVVLMTLGSILLGLRKSGDRPPGVSTSQYLLGFILSIGAAALGGFVLPCTEVAYAKASKAMTYSLVLQYQFCMTFFATVFCTVGMLVNKDFSAMQREASEYELGATKYYLVLVSSAVVWQLMFVGTLGIIFCTSSLFAGVITATLLPLTEIAAVIVFHEKFTGEKGMALALGIWGFISYFYGSYRENKKNIQSPHETNNTSSK
B2: SEQ ID NO: 244: uptake transporter expressed with UGT in yeast (protein)
chain: MKSIVENDQSNMKGGVLVSSNSHEHHHHQEEDNKKKKKMKLVILIVNCIFLSVAQITGPLLLRVYYLHGGQRKWLSSWLQTVAFPFLLIPISVSWFKSKSKSHDSRSISAIDVNPTTDRKLRFGGFSPKLFISCIFLGIIVGLDSFLYAYGVSYLPVSTSSLLMSTQLAFTAAFALLLVRQKFTPYSINSVVLLTLGAVVLAFHTNGDKPIGVSKDQYFLGFFVTLGAAALFGFMLPFIELVYRKACEAVTYDLVMRMQFIISMVATVFCTIAMLINKDFQAISREAKGFELGETKYYIVLIFTAVSMQCAVVGTLGVIHCASSLFSGVLMTLLLPIQQICAIFFFNEKFSAEKGMSLGLSIWGFASYFYGEYKQTKKKTNQHKAVPINSQEIPDEV
B3: SEQ ID NO: 228: uptake transporter (PUP) expressed with UGT in yeast (protein)
chain: MATNMHGLENGIQENQQNKQSAESSKMSLFIAKWWLLFLNFACCAVGTIGGPLLLRLYYLHGGSRKWIPGWLQTVGFPIHLIPILILYSRRSPGVKFFASPKLLLCAAVIGVFTGLDNFMYSLGLSYLPVSTSSLLLATQLVFTAFFSFIIARQKFTPFSINAVVLMTLGAVMLGLRNNGDRPQGVTSSEYMLGYILTIAAAGLLGFVLPVTEVTYAKATHSITYAIVLQFQFCTALFATIFCSIGMIANKDFQAIPREATQFDLGAGKYYLLLASSAVVWQLMFLGIMGTIFCTSSLFAGIMNATLLPFTQIAGVIVYKEKFTGEKGMALALSLWGFASYFYGAYRDNKKQTQKEVEEK
B4: SEQ ID NO: 248: uptake transporter expressed with UGT in yeast (protein)
chain: MEAAMKRALLVLNCILLFIGGSGGPLLTRLYFIHGGSRLWFSSWLQTGGFPIFLLPLSIAYIQHHRRNPSPGNRFFIGPRLFIASVIIGILTGLDDFLMANGMARLPISTSALISATQLAFTAGFAFLLVRQKFTAYSVNALVLLTIGAAVLAMHGSSDRPEGESSKEYMFGFVMMIGAAALYGFIMPFLELVYAKAGQEITYAVVMQIQMVICVFATGFSTVGMVINNDFKVIPREAREFEIGETKYYLVVVWSAVAWQFSFLGVVGIVFCASSLLSGVMVSLLIPVTEVLGVIFLDEKFRPEKGVALALSIWGFISYFYGEARTLKKQKHVDQDTEMQQV
B5: SEQ ID NO: 250: uptake transporter expressed with UGT in yeast (protein)
chain: MDNHKSATTTTNTEPMTAKVSPAAKKTLLILNCILLSVGICGGPLIMRLYFVHGGNRVWLSSFLETAGWPFIVPVLIVLFFIRRNSNTKTTTIYMRPRLFFATAFVGILTGLDDYLYAYGLARLPVSTSSLIIASQLGFTAFFAYLLVKQKFTPYSINAVVLLTVGAGVLALHTSSDRPKGESKKEYMLGFVMTVGAALLYGFILPLVELTYNKAKQAITYTLVLEIQMVMCLFATIFCTVGMIVNNDFKVIPREATEFGLGKTNYYTILCASALTWQCFFLGAIGVIFCASSLLSGIIIAVALPVTEVLAVVFFSEKFQAEKGVALVLSLWGFASYFYGEYKSTKKPKDINESTRQTMELPQSDYSRV
B6: SEQ ID NO: 230: uptake transporter (PUP) expressed with UGT in yeast (protein)
chain: MRRALLVLNCVILSIGNCGGPLIMRLYFIHGGKRVWLSSWLETAGWPIIFIPLLISYFHRRSTTDPTTAKLFYMKPSLFLAATGIGILTGFDDYLYAYGVARLPVSTSSLIIATQLAFTAGFAFLLVKQKFTSYSINAVVLLTVGAGVLALHTSSDRPEHESKKEYNLGFVMTLGAAVLYGLILPLVELTYRKAKQEISYTLVMEIQMIMCLFATVVCTVGMLVNNDFKVIPREAKEFELGETKYYVIMVWSAIIWQCFFLGAIGIVFCASSLASGVVIAVLLPVTEILAVIFYQEKFQAEKGVALALSLWGFLSYFYGEIKQSKKTNLTSEIETSESSIPTQNV
B7: SEQ ID NO: 252: uptake transporter expressed with UGT in yeast (protein)
chain: MATKELPFSGEYMHDEEAPTKCVGQKKGGWTTFPFVTVSLLGLSIAVAGWMTNLIVYLIQKFNIKNIHATEIYNVVNGCTCFFPIVGAIIADSFVGNFFVILVSSILSLLGLVLLTLTATLDSLRPRDCKGDLETCEAPSQFQLAILFSAITLVSIGSGGTRFTLATMGADQFDKTKDQGTFFNWFFFTFYLATVIGITAIVYIEDNVSWGVGYILCLAINAIGLTIFICGKRYYRHIKPCGSPFTSLARVIVATIRKKKMVLSSESKDYYYGRIDETMFNAIIGPTSSFRFLNRAAMKTEGDAQQEGKLTESWSLCTVQHVEDFKSLIKIFPLWSTSIFLSTPIAIQMSLMVLQALTMDRHVGPHFSIPSSSFLVFTLLFTAISLSIFDRLLFPMWKKLTRRPMTPLLRLGIGHVLNIVGMAGSALVESRRLHVVRTHNLTHQPNSAAPMSALWLVAPLAIVGVGEAFHFPGQVALYYQEFPTSLKSTATAMISLVIAVAFYLSTALINLTQKITGWLPDNINEGRIDNVFWMLVILGVINFGYYITCAMLYKYNNVENAEQISETVTEA
B8: SEQ ID NO: 254: uptake transporter expressed with UGT in yeast (protein)
chain: MKKALLLINCLVLAIGNCGGPLMMRLYFLHGGKRVWFSSWLETGAWPVILFPIACVYVHRRKTQPGAKLFLMKLPLFVASAVIGVITGFDDYLYAYGVARLPVSTSSLIIASQLAFTAGFAFLLVKQKFTSYSINAVFLLTIGAGVLALHTSSDRPENESNKEYVLGFLMTVAAAVLYGFILPLVELMYKKARQELSYALVMEIQMVMCLFATVFCTVGMVVNNDFKVISREAREFGLGETNYYVLAVLTAIIWQCFFLGAIGVIFCSSSLLSGIVIAVLLPVTEILAVIFYKEKFQAEKGVSLALSLWGFFSYFYGEMKHAKKMKPTTTAETELPQAQQVPIRLESA

Assay: Combinations of uptake transporters and UGTs in bioconversion of oripavine to nororipavine
Type: cell-based, Saccharomyces cerevisiae
Details: cells fed with 0.5 mM oripavine in DELFT media pH 5.5, 30° C., 250 rpm, 72 h

Molecule	nororipavine glucosylation
B1	more than 50%
B2	more than 50%
B3	more than 50%
B4	more than 50%
B5	more than 50%
B6	more than 50%
B7	more than 50%
B8	more than 50%
